# Measurements reported in PubChem BioAssay AID686943 (Drosophila RNAi Screening Center, 2013).
# Screen: 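Fly genes whose loss alters ERK activation after insulin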 (primary screen)
# Cells: Drosophila S2R+ haemocyte-like cells expressing YFP-tagged ERK (Rolled)
# Reagent: long dsRNA against Drosophila genes
# Treatment: insulin stimulation versus unstimulated cells; dose and duration not given
# Measured: 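Antibody staining for doubly phosphorylated ERK divided by ERK-YFP signal, as plate z-scores, in insulin-treated and untreated cells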
# Scale: replicate 1, z-score of dpERK with insulin and replicate 2, z-score of dpERK with insulin: higher = more active ERK per ERK-YFP after insulin; replicate 1, z-score of dpERK under basal conditions: higher = more basal active ERK per ERK-YFP; replicate 1, z-score of ERK-YFP with insulin: higher = more YFP-tagged ERK signal
# The deposit covers about 23,000 reagents; this is an unselected part of those with a known target gene and a result. 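Extra replicates exist only for a retested subset of genes; insulin dose and duration not given; both raised and lowered dpERK matter.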 Reagents against one gene are numbered here. Names joined by + are all predicted targets of the reagent. No sequences are given here. The record does not give: the amount of reagent, the time to read-out.
gene knocked down,reagent,"replicate 1, z-score of dpERK with insulin","replicate 2, z-score of dpERK with insulin","replicate 1, z-score of dpERK under basal conditions","replicate 1, z-score of ERK-YFP with insulin"
CG5882 (GeneID 43269),1,1.08,0.49,0.72,-1.69
CG31010 (GeneID 318555),1,0.16,0.62,1.08,0.74
CG10562 (GeneID 43066),1,0.96,-0.72,-0.06,2.79
SmD3 (GeneID 36306),1,2.09,2.2,-1.75,-1.17
CG3257 (GeneID 37862),1,0.4,0.77,0.6,-0.18
Naglu (GeneID 46386),1,-0.42,0.32,0.73,-0.4
CG30393 (GeneID 246588),1,0.79,-1.27,0.35,-0.17
CG13982 (GeneID 33895),1,1.46,0.76,0.03,-0.97
CG7544 (GeneID 36680),1,0.16,1.02,-0.48,0.35
betaNACtes2 (GeneID 32386),1,0.1,-1.64,-0.13,0.16
CG4630 (GeneID 36458),1,0.66,0.65,0.11,0.52
CG5592 (GeneID 38662),1,0.44,0.69,-1.13,0.28
cindr (GeneID 43654),1,0.2,-0.92,-1.18,0.63
cindr (GeneID 43654),2,-0.67,0,-1.67,-0.52
Unc-115b + p24-2 + Unc-115a,1,0.27,0.22,-0.28,-0.04
Cht11 (GeneID 31630),1,-0.28,0.16,0.53,-0.18
SkpE (GeneID 32997),1,0.05,0.04,0.3,0.1
VGlut (GeneID 33427),1,-0.1,0.79,-0.32,-0.24
VGlut (GeneID 33427),2,0.53,0.62,-0.68,0.6

Individual results from above.
For “replicate 2, z-score of dpERK with insulin”, VGlut (GeneID 33427) #2 shows 0.62
CG3257 (GeneID 37862), replicate 1, z-score of ERK-YFP with insulin → -0.18
Result for CG31010 (GeneID 318555) under “replicate 2, z-score of dpERK with insulin”: 0.62
Value of SmD3 (GeneID 36306) in “replicate 1, z-score of dpERK with insulin”: 2.09
Under “replicate 1, z-score of dpERK with insulin”, SkpE (GeneID 32997) has 0.05
Value of Unc-115b + p24-2 + Unc-115a under “replicate 1, z-score of dpERK with insulin”: 0.27

Next reagents follow:
gene knocked down,reagent,"replicate 1, z-score of dpERK with insulin","replicate 2, z-score of dpERK with insulin","replicate 1, z-score of dpERK under basal conditions","replicate 1, z-score of ERK-YFP with insulin"
Kpc2 (GeneID 37261),1,-0.67,-0.47,0.38,-0.01
CG1092 (GeneID 40538),1,-0.1,0.23,0.11,0.19
lky (GeneID 33006),1,0.45,-0.14,0.27,-0.05
Pgcl (GeneID 30984),1,-0.21,-0.6,2.36,0.74
Gyg (GeneID 37419),1,-0.81,-0.95,-1.07,-5.72
Gyg (GeneID 37419),2,-0.12,-0.04,-0.43,0.72
h-cup (GeneID 41879),1,-0.86,-0.61,-0.41,-0.64
Pdss2 (GeneID 40323),1,0.21,0.16,0.66,0.35
CG4607 (GeneID 31653),1,-0.38,-0.25,0.31,1.47
veg (retired record) (GeneID 44057),1,0.55,-0.05,-0.29,0.18
PIG-T (GeneID 31772),1,-0.85,-0.67,-0.23,0.51
CG11396 (GeneID 40296),1,0.16,1.09,-0.45,1.05
CG10492 (GeneID 35177),1,0.15,-0.21,-1.38,0.95
Itpr (GeneID 40664),1,0.5,0.88,0.2,0
CG11159 (GeneID 37341),1,0.67,-0.1,-0.33,0.37
CG15747 (GeneID 32288),1,1.24,0.2,0.97,-0.62
CG14947 (GeneID 34628),1,-0.2,0.47,0.77,0.68
Tsp5D (GeneID 31540),1,-0.25,0.17,0.21,0.08
CG13101 (GeneID 34221),1,0.15,-0.68,-0.13,0.24
alpha4GT2 (GeneID 43124),1,-0.42,0.74,-0.46,0.31
alpha4GT2 (GeneID 43124),2,-0.81,-0.2,-0.26,0.89
Rab21 (GeneID 3355163),1,-0.53,0.46,-0.3,0.87
Hmg-2 (GeneID 37407),1,-2.09,-2.28,-0.07,-0.78
CtsL1 (GeneID 36546),1,-0.09,-0.41,0.97,1.14
CtsL1 (GeneID 36546),2,-0.16,-1.6,0.4,1.8
Camta (GeneID 35974),1,-0.94,-0.4,-0.75,0.01
Camta (GeneID 35974),2,-4.57,0.77,0.6,0.42
Camta (GeneID 35974),3,0.13,0.26,0.06,0.38
ana (GeneID 35913),1,-0.36,-0.26,0.84,-2.29
CG33461 (GeneID 2768840),1,1.07,0.32,-1.01,-1.03
Dhx15 (GeneID 35654),1,0.93,1.33,0.32,-2.18
rk (GeneID 34819),1,-0.26,-0.08,0.83,0.58
Pdfr (GeneID 31234),1,-1.51,1.02,-1.7,0.38
CG9521 (GeneID 32414),1,-0.02,0.37,0.25,0.32
Jon44E (GeneID 35853),1,0.44,0.94,-0.41,-1.08
SelT (GeneID 33725),1,-0.34,-0.07,-0.11,0.11
CG7992 (GeneID 32917),1,-1.85,0.07,-0.17,2.19
CG9632 (GeneID 41926),1,0.22,0.24,0.25,-0.2
